Measured values from patent US20100216795A1, “TNIK INHIBITOR AND THE USE” (priority 2008, published 2010).
For at least one compound, name, drawing or mass did not settle the structure.

Legend:
[1] = tested on: β-catenin/TCF4-mediated transcription in HCT-116; assay: TCF/LEF reporter gene assay in HCT-116 cells; format: cell-based, human; conditions: HCT-116, 0.078125-0.625 μM, 24 h
[2] = tested on: β-catenin/TCF4-mediated transcription in DLD1; assay: TCF/LEF reporter gene assay in DLD1 cells; format: cell-based, human; conditions: DLD1, 0.078125-0.625 μM, 24 h

CC(=O)Nc1ccc(C(=O)Nc2sc(Nc3ccccc3)nc2C(N)=O)cc1 [Compound 1, 5-(4-acetamidobenzamido)-2-(phenylamino)thiazole-4-carboxamide]
inhibition of β-catenin/TCF4-mediated transcription (TOP-FLASH/FOP-FLASH luciferase reporter) [1]: inhibited β-catenin/TCF4-mediated transcription in DLD1 and HCT-116 in a concentration-dependent manner | inhibition of β-catenin/TCF4-mediated transcription (TOP-FLASH/FOP-FLASH luciferase reporter) [2]: inhibited β-catenin/TCF4-mediated transcription in DLD1 and HCT-116 in a concentration-dependent manner
